Reference: PubChem BioAssay AID504774 (Drosophila RNAi Screening Center, 2011)

Purpose: 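Fly genes whose loss alters survival after alkylation damage to DNA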 (primary screen)
Cell system: Drosophila Kc167 cells
Reagents: long dsRNA against Drosophila genes, about 0.25 µg dsRNA per well
Timing: about 6 days: 3 days knock-down, then 3 days with or without MMS
Conditions: methyl methanesulphonate 0.004% (w/v) for 3 days after knock-down
Detection: 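Viability in wells given MMS, read as ATP luminescence, normalised by quantiles plate by plate and averaged across replicates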
Scale: mean viability with MMS and viability with MMS: higher = more surviving cells after MMS
The deposit covers about 23,000 reagents; this is a random part of those that have a named target and a result. 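Values are quantile-normalised luminescence on an arbitrary scale; higher means more cells surviving MMS.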 The numbers tell different reagents against one gene apart. Further read-outs or replicates are left out here.

mia — mean viability with MMS = 3.60e6; viability with MMS, replicate 1 = 4.08e6
Arpc3A — mean viability with MMS = 3.46e6; viability with MMS, replicate 1 = 3.93e6
CG14830 #1 — mean viability with MMS = 3.40e6; viability with MMS, replicate 1 = 3.71e6
CG14830 #2 — mean viability with MMS = 3.52e6; viability with MMS, replicate 1 = 3.92e6
CG14829 — mean viability with MMS = 3.78e6; viability with MMS, replicate 1 = 4.52e6
CG32726 — mean viability with MMS = 3.84e6; viability with MMS, replicate 1 = 4.39e6
yellow-b — mean viability with MMS = 3.60e6; viability with MMS, replicate 1 = 3.90e6
CG15365 #1 — mean viability with MMS = 2.99e6; viability with MMS, replicate 1 = 3.46e6
CG15365 #2 — mean viability with MMS = 3.61e6; viability with MMS, replicate 1 = 4.22e6
peb #1 — mean viability with MMS = 3.25e6; viability with MMS, replicate 1 = 3.72e6
peb #2 — mean viability with MMS = 3.67e6; viability with MMS, replicate 1 = 4.06e6
mus101 — mean viability with MMS = 3.52e6; viability with MMS, replicate 1 = 4.03e6
gce #1 — mean viability with MMS = 3.48e6; viability with MMS, replicate 1 = 3.91e6
gce #2 — mean viability with MMS = 3.32e6; viability with MMS, replicate 1 = 3.73e6
CG4287 — mean viability with MMS = 3.58e6; viability with MMS, replicate 1 = 4.01e6
AP-1gamma — mean viability with MMS = 3.44e6; viability with MMS, replicate 1 = 3.91e6
bumpel — mean viability with MMS = 3.76e6; viability with MMS, replicate 1 = 4.15e6
CG11911 — mean viability with MMS = 3.53e6; viability with MMS, replicate 1 = 4.02e6
CG14739 — mean viability with MMS = 3.49e6; viability with MMS, replicate 1 = 3.97e6
BBS1 — mean viability with MMS = 1.84e6; viability with MMS, replicate 1 = 3.91e6
CG31008 — mean viability with MMS = 3.49e6; viability with MMS, replicate 1 = 3.94e6
CG15572 — mean viability with MMS = 3.80e6; viability with MMS, replicate 1 = 4.20e6
CG14174 — mean viability with MMS = 3.71e6; viability with MMS, replicate 1 = 4.12e6
CG13041 — mean viability with MMS = 3.51e6; viability with MMS, replicate 1 = 3.86e6
RpS9 — mean viability with MMS = 2.99e6; viability with MMS, replicate 1 = 3.59e6
SREBP — mean viability with MMS = 3.44e6; viability with MMS, replicate 1 = 3.80e6
PK2-R1 — mean viability with MMS = 3.61e6; viability with MMS, replicate 1 = 4.26e6
CG33120 — mean viability with MMS = 3.47e6; viability with MMS, replicate 1 = 3.96e6
CtsL3 — mean viability with MMS = 3.65e6; viability with MMS, replicate 1 = 4.09e6
CG15456 — mean viability with MMS = 3.64e6; viability with MMS, replicate 1 = 4.03e6
Myo95E — mean viability with MMS = 3.48e6; viability with MMS, replicate 1 = 3.98e6
Spp — mean viability with MMS = 3.80e6; viability with MMS, replicate 1 = 4.19e6
CG10257 — mean viability with MMS = 3.54e6; viability with MMS, replicate 1 = 4.14e6
CG30411 — mean viability with MMS = 3.59e6; viability with MMS, replicate 1 = 4.20e6
Plc21C — mean viability with MMS = 3.32e6; viability with MMS, replicate 1 = 3.83e6

A stretch from the list above, as a working copy:
CG14830 #1 — mean viability with MMS = 3.40e6; viability with MMS, replicate 1 = 3.71e6
CG14830 #2 — mean viability with MMS = 3.52e6; viability with MMS, replicate 1 = 3.92e6
